The source of these data is US10640547B2, “Immunotherapy against melanoma and other cancers” (IMMATICS BIOTECHNOLOGIES GMBH, priority 2016, dated 2020).

The data set deals with HLA molecules of melanoma, other tumor and normal tissue samples. As to the kind of experiment: Identification and relative quantitation of tumor associated peptides presented on the cell surface (HLA immunoprecipitation, label-free LC-MS). The settings on record: for Peptide Presentation (presentation score): over-presentation on tumors compared to a panel of normal tissues; for Additional Entities (additional tumor types on which the peptide was found) / relevant organs/diseases (additional tumor types on which the peptide was found): over-presented on more than 5% of the measured tumor samples, or presented on more than 5% with ratio of geometric means tumor vs normal tissues larger than 3. Further details: species or system human; key to Peptide Presentation (presentation score): very highly over-presented on tumors compared to a panel of normal tissues (+++); highly over-presented on tumors compared to a panel of normal tissues (++); over-presented on tumors compared to a panel of normal tissues (+).

With “59 (IIDDVMKEL; listed as Homo sapiens) [compound 59]”, the “Peptide Presentation (presentation score)” value (shortened to “Peptide Presentation”) is listed as “++” and the “Additional Entities (additional tumor types on which the peptide was found)” value (“Additional Entities” below) is “AML”. On to “60 (ILPEAQDYFL; listed as Homo sapiens) [compound 60]”, for which the “Peptide Presentation” value was “+++”.

As to “61 (KLSVHVTAL; listed as Homo sapiens) [compound 61]”, the “Peptide Presentation” value was “+++”. Consider “62 (LLDTTQKYL; listed as Homo sapiens) [compound 62]”, for which the “Peptide Presentation” value is given as “+++” and the “Additional Entities” value is given as “AML”.

Regarding “63 (SIDDSDPIV; listed as Homo sapiens) [compound 63]”, the “Peptide Presentation” value is on record as “+++”. On to “64 (SLGPIMLTKI; listed as Homo sapiens) [compound 64]”, for which the “Peptide Presentation” value was “+++” and the “Additional Entities” value is “HCC”. Regarding “65 (TTLGGFAKV; listed as Homo sapiens) [compound 65]”, the “Peptide Presentation” value is listed as “+++”. For “66 (VMFEYGMRL; listed as Homo sapiens) [compound 66]”, the “Peptide Presentation” value is given as “+++”. With “67 (YVDSEGIVRM; listed as Homo sapiens) [compound 67]”, the “Peptide Presentation” value is “+++”.

“68 (FLAEAARSL; listed as Homo sapiens) [compound 68]”: the “Peptide Presentation” value was “+++” and the “Additional Entities” value is listed as “HCC”. In the case of “69 (IIDDKPIGL; listed as Homo sapiens) [compound 69]”, the “Peptide Presentation” value is listed as “+++”.

With “70 (LIDEAAQML; listed as Homo sapiens) [compound 70]”, the “Peptide Presentation” value is “+++”. Regarding “71 (SLDEVAVSL; listed as Homo sapiens) [compound 71]”, the “Peptide Presentation” value was “+++”. The same measure, in the same setting: the value for “72 (TLLEVDAIVNA; listed as Homo sapiens) [compound 72]” was “+++”; that for “73 (ELDKIYETL; listed as Homo sapiens) [compound 73]” was “+++”; that for “74 (GTIPLIESL; listed as Homo sapiens) [compound 74]” was “+++”. For “75 (FMYAGQLTL; listed as Homo sapiens) [compound 75]”, the “Peptide Presentation” value is on record as “+++”. As for “76 (QIDSIHLLL; listed as Homo sapiens) [compound 76]”, the “Peptide Presentation” value is reported as “+++”. “77 (SIDDVVKKL; listed as Homo sapiens) [compound 77]”: the “Peptide Presentation” value is given as “+++”.

Consider “78 (ALKDLVNLI; listed as Homo sapiens) [compound 78]”, for which the “Peptide Presentation” value is “+++” and the “Additional Entities” value is reported as “HCC”. Consider “79 (AVDNILLKL; listed as Homo sapiens) [compound 79]”, for which the “Peptide Presentation” value is reported as “+++”.

For the substance “80 (FADELSHLL; listed as Homo sapiens) [compound 80]”, the “Peptide Presentation” value is recorded as “+++” and the “relevant organs/diseases (additional tumor types on which the peptide was found)” value (“relevant organs/diseases” below) is given as “AML”. As to “81 (FLDDGNQML; listed as Homo sapiens) [compound 81]”, the “Peptide Presentation” value is “+++”. As for “82 (GIDDLHISL; listed as Homo sapiens) [compound 82]”, the “Peptide Presentation” value is on record as “+++”. As to “83 (GLDKVITVL; listed as Homo sapiens) [compound 83]”, the “Peptide Presentation” value is reported as “+++”. Take “84 (GLDTILQNL; listed as Homo sapiens) [compound 84]”: the “Peptide Presentation” value is reported as “+++” and the “Additional Entities” value was “GC, AML”.

Consider “86 (HTLPHEIVVNL; listed as Homo sapiens) [compound 86]”, for which the “Peptide Presentation” value was “+++”. On the same count and under the same terms, the value for “87 (IIDPPLHGQLL; listed as Homo sapiens) [compound 87]” was “+++”.

As for “88 (ILDGIIREL; listed as Homo sapiens) [compound 88]”, the “Peptide Presentation” value is on record as “++”.

Regarding “89 (ILDNSPAFL; listed as Homo sapiens) [compound 89]”, the “Peptide Presentation” value was “+++”. Regarding “90 (ILDYIHNGL; listed as Homo sapiens) [compound 90]”, the “Peptide Presentation” value is “+++”. In the case of “91 (ILLDRLFSV; listed as Homo sapiens) [compound 91]”, the “Peptide Presentation” value was “+++” and the “Additional Entities” value is listed as “HNSCC”.

On to “92 (KLPGFPTQDDEV; listed as Homo sapiens) [compound 92]”, for which the “Peptide Presentation” value was “+++”.

As to “93 (LLAKAVQNV; listed as Homo sapiens) [compound 93]”, the “Peptide Presentation” value is on record as “+++”.

On to “94 (LLDAFSIKL; listed as Homo sapiens) [compound 94]”, for which the “Peptide Presentation” value is listed as “+++”.

In the case of “95 (LLDALQHEL; listed as Homo sapiens) [compound 95]”, the “Peptide Presentation” value is reported as “+++”. The same measure, in the same setting: the value for “96 (LLDMSLVKL; listed as Homo sapiens) [compound 96]” was “+++”; that for “97 (NLDATVTAL; listed as Homo sapiens) [compound 97]” was “+++”; that for “98 (NLPNTNSILGV; listed as Homo sapiens) [compound 98]” was “+++”. As for “99 (NLPSELPQL; listed as Homo sapiens) [compound 99]”, the “Peptide Presentation” value is “+++”.

Regarding “100 (NLREILQNV; listed as Homo sapiens) [compound 100]”, the “Peptide Presentation” value is on record as “+++” and the “Additional Entities” value was “HCC”. “101 (NVDENVAEL; listed as Homo sapiens) [compound 101]”: the “Peptide Presentation” value is given as “+++”. On to “102 (RLPDQFSKL; listed as Homo sapiens) [compound 102]”, for which the “Peptide Presentation” value is listed as “+++” and the “Additional Entities” value was “AML”. In the case of “103 (SLDAVMPHL; listed as Homo sapiens) [compound 103]”, the “Peptide Presentation” value is given as “+++”.

For the substance “104 (SLDQIIQHL; listed as Homo sapiens) [compound 104]”, the “Peptide Presentation” value is given as “+++” and the “Additional Entities” value is “AML”. In the case of “105 (SLKQTVVTL; listed as Homo sapiens) [compound 105]”, the “Peptide Presentation” value is recorded as “+++” and the “Additional Entities” value is listed as “HCC”.

On to “106 (TLSEICEFI; listed as Homo sapiens) [compound 106]”, for which the “Peptide Presentation” value was “+++”.

In the case of “107 (TLVAFLQQV; listed as Homo sapiens) [compound 107]”, the “Peptide Presentation” value is listed as “+++”. Regarding “108 (TVIRPLPGL; listed as Homo sapiens) [compound 108]”, the “Peptide Presentation” value is “+++”. With “109 (VIDDLIQKL; listed as Homo sapiens) [compound 109]”, the “Peptide Presentation” value is reported as “+++” and the “Additional Entities” value was “AML”.

As for “110 (VLDTLTKVL; listed as Homo sapiens) [compound 110]”, the “Peptide Presentation” value is “+++”.

Turning to “111 (VLDVSFNRL; listed as Homo sapiens) [compound 111]”, the “Peptide Presentation” value was “+++”. In the case of “112 (VLPAVLTRL; listed as Homo sapiens) [compound 112]”, the “Peptide Presentation” value was “+++”. Turning to “113 (VLYSLVSKI; listed as Homo sapiens) [compound 113]”, the “Peptide Presentation” value is listed as “+++”. Turning to “114 (VVDDIVSKL; listed as Homo sapiens) [compound 114]”, the “Peptide Presentation” value is “+++” and the “Additional Entities” value was “GC, AML”. With “115 (YIDDVFMGL; listed as Homo sapiens) [compound 115]”, the “Peptide Presentation” value is “+++”. Consider “116 (LMDETMKEL; listed as Homo sapiens) [compound 116]”, for which the “Peptide Presentation” value is on record as “++” and the “relevant organs/diseases” value is “NSCLC, Brain Cancer, HCC, NHL, BRCA, OC, Urinary bladder cancer, Gallbladder Cancer, Bile Duct Cancer”. For “117 (KQQASQVLV; listed as Homo sapiens) [compound 117]”, the “Peptide Presentation” value is “++”. On to “118 (TMIEICEKL; listed as Homo sapiens) [compound 118]”, for which the “Peptide Presentation” value is “++” and the “relevant organs/diseases” value is “NSCLC, AML, OC”. Turning to “119 (SLGLGFISRV; listed as Homo sapiens) [compound 119]”, the “Peptide Presentation” value is “++” and the “relevant organs/diseases” value is listed as “BRCA”. Consider “120 (QLMEGKVVL; listed as Homo sapiens) [compound 120]”, for which the “Peptide Presentation” value is “++”, the “Additional Entities” value was “HNSCC” and the “relevant organs/diseases” value is on record as “NHL”. As for “121 (FLEDLVPYL; listed as Homo sapiens) [compound 121]”, the “Peptide Presentation” value is given as “+” and the “relevant organs/diseases” value is recorded as “CLL, NHL, AML”.
